Test results: US9833430B2, “Neurodegenerative disorders and methods of treatment and diagnosis thereof” (The University of Queensland, priority 2013, dated 2017)

What was measured:
[1] = test system: wild-type mice; experiment: Body weight of wild-type mice on triheptanoin diet; assay type: in vivo
[2] = test system: hSOD1^G93A mice; experiment: Body weight and onset of body weight loss in hSOD1^G93A mice; assay type: in vivo
Excerpt: Immediately after weaning, mice were placed on either a standard diet (SF11-027, Specialty Feeds, WA, AUS) or a matched diet (SF11-028, Specialty Feeds) in which 35% of the calories were from triheptanoin oil (Sasol, Germany). All diets were matched in protein, mineral, antioxidant and vitamin content relative to their caloric densities (Thomas et al., 2012). Triheptanoin replaced sucrose, some of the complex carbohydrates and long chain fats in the diet.
Animals underwent behavioral testing approximately 3-4 hours into the light cycle. All behavioral testing was conducted in an environment with minimal stimuli so as to minimize any possible effects caused by changes in external stimuli. Animals were weighed before every test session. Mice were observed, and disease progression tracked and graded according to a neurological score sheet to ensure that any non-ALS related deaths were excluded from the study. The neurological score was adapted from criteria developed at the ALS therapy development institute (Gill et al., 2009). In accordance with ethical requirements, hSOD1^G93A mice that became too weak to reach the food hoppers were provided with wet chow on the floor of the cages. The endpoint of the study was defined as the mouse being unable to right itself within 15 seconds after being placed on its back. […]

With `CCCCCCC(=O)OCC(COC(=O)CCCCCC)OC(=O)CCCCCC` [triheptanoin, 1,3-di(heptanoyloxy)propan-2-yl heptanoate] as the compound, how does the “body weight lighter than control fed mice” value ([1]; at 14 weeks of age) read?
The value was “approximately 3 g”.

And the “body weight lighter than control fed mice” value ([1]; at 22 weeks of age)?
The value was “approximately 4 g”.

And the “body weight gain from 7-16 weeks vs control diet” value ([2]; hSOD1^G93A mice)?
The value was “trend of reduced body weight gain”.

And the “body weight vs control diet over the full time period” value ([2]; hSOD1^G93A mice with 19-24 transgene copies)?
The value was “no statistically significant differences”.
